Results as given in PubChem BioAssay AID2551 (National Center for Advancing Translational Sciences (NCATS), 2010).
Hit rate of the full screen: of about 310,000 compounds, about 17,000 (5.5%) were called active. Inconclusive means that the source gave no clear call. Such entries were picked first, then a sample of the others. Calls follow the shape of the dose curve; as a rule, active = well fitted inhibition curve with a large enough effect; inconclusive = small, poorly fitted or top-dose-only effect, or effect the other way; inactive = no such curve, though single readings can be large or run the other way. Where the call is inconclusive, the potency comes from a doubtful curve fit.

Protein sequences, listed by entry. Tags and fused reporters are not part of them. Lines headed by an entry give the natural chain unless they say otherwise; changes in a name come on top.
UniProt P51450: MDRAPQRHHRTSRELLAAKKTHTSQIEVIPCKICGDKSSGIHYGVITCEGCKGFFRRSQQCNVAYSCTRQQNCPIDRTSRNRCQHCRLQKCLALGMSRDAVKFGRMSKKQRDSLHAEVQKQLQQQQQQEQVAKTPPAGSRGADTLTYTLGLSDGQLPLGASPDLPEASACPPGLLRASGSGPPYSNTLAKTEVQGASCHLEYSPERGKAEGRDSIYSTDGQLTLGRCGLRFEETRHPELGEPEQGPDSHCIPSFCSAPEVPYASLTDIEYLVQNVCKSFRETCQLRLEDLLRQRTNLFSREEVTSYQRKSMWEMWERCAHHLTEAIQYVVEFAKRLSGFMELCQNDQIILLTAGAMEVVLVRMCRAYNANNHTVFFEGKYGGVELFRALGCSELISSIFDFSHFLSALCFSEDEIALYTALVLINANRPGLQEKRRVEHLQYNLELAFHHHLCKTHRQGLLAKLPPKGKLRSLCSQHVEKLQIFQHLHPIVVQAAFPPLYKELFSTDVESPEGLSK

molecular target: Nuclear receptor ROR-gamma (Mus musculus) (UniProt P51450); assay: qHTS for inhibitors of ROR gamma transcriptional activity; conditions: Drosophila S2 Gal4-RORgamma UAS-luciferase reporter, 20 h; activity change, negative = inhibition: at 53.6 µM (top of the series); also: nearly all actives have a fitted effect of over 60% in size
Procedure, shortened: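 Luciferase reporter read in Schneider cells carrying Gal4-RORγ (mouse) and UAS-Photinus luciferase; cells given compound 1 h before 700 uM copper sulfate induction, then incubated 20 h at ambient temperature.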
% is scaled to controls: 0 for no effect and ±100 for the full control effect; potency is read from the fitted curve at half-maximal effect.

Compound | Potency | activity change, negative = inhibition
O=C1CCCN1Cc1ncnn1-c1ccccc1 | inconclusive: 0.316 µM [inhibitor, single point] | –
COc1ccccc1[C@@H]1C(c2ccc(F)cc2)=NN(c2ccc(Br)cc2)[C@H]1C(=O)N1CCOC1=O | – | inactive: 0.169% [at 40.7 µM]
O=C(N/N=C\c1ccc(Cl)cc1)C1=NOC2COC3(CCN(c4ccc([N+](=O)[O-])cc4)CC3)OCC12 (centres undefined) | inconclusive: 3.16 µM [activator, single point] | –
COc1cc2nc(SCC(=O)c3ccc(Br)cc3)n3nc(C)nc3c2cc1OC | active: 12.6 µM | –
O=C(N/N=C/c1cccc2cccnc12)c1ccccc1O | active: 0.355 µM | –
CCc1ccc(OCC(=O)N(C)CCC#N)c(Br)c1 | inconclusive: 15.8 µM [activator, single point] | –
COC(=O)Oc1ccc(/C=N/NC(=O)CSCc2ccccc2Br)cc1OC | inconclusive: 31.6 µM [inhibitor, single point] | –
CCCCC(=O)Nc1ccc(NC(=S)NC(=O)CC)cc1OC | active: 12.6 µM | –
Cc1csc(SCC(=O)Nc2nc(-c3ccccc3)cs2)n1 | inconclusive: 0.0282 µM [activator, full curve, poor fit] | –
CCc1ccc(Nc2ccc(S(=O)(=O)N3CCOCC3)cc2[N+](=O)[O-])cc1 | inconclusive: 12.6 µM [activator, partial curve] | –
Cc1ccc(C(=O)CCC(=O)Nc2ccc(Cl)c(S(=O)(=O)Nc3cccc(Cl)c3)c2)cc1 | – | inactive: 23%
NC(=O)C1CCN(C(=O)c2ccc3c(c2)S(=O)(=O)c2ccccc2C3=O)CC1 | – | inactive: -5.04%
CN(Cc1ccco1)S(=O)(=O)c1nnc(NC(=O)c2ccc(F)cc2)s1 | inconclusive: 8.91 µM [activator, single point] | –
C=CCn1c(SCc2nc3cc(C(=O)OC)ccc3c(=O)[nH]2)nc2sc(CC)cc2c1=O | – | inactive: 20.2%
N#CCOc1ccccc1/C=C/c1nc2ccccc2c(=O)[nH]1 | inconclusive: 0.251 µM [activator, full curve, poor fit] | –
COC(=O)c1ccc2c(c1O)C(=O)c1ccccc1C2=O | inconclusive: 1.12 µM [inhibitor, full curve, poor fit] | –
CCN1C(=O)c2ccc(C(=O)Nc3cccc(C(=O)O)c3)cc2C1=O | active: 10 µM | –
O=C(C1=C[C@H](c2ccc3c(c2)OCO3)C[C@H](OCc2ccc(CO)cc2)O1)N1CCCCCCC1 | active: 14.1 µM | –
COC(=O)CCCC1=CC2=CC(=O)C(C)(OC(=O)c3cccs3)C(=O)C2=CN1CCCCO (centres undefined) | – | inactive: -29.5%
COc1cc(CC(=O)OCC(=O)N2CC(=O)Nc3ccccc32)cc(OC)c1OC | – | inactive: -10.9%
CCC(C)OC(=O)c1[nH]c2c(c1C)C(=O)CC(c1ccc(N(C)C)cc1)C2 (centres undefined) | inconclusive: 0.794 µM [activator, full curve, poor fit] | –
COCc1nnc(NC(=O)c2ccc(S(=O)(=O)N3CCCc4ccccc43)cc2)o1 | active: 0.631 µM | –
O=C(N/N=C/c1ccsc1)c1cc2ccccc2o1 | inconclusive: 20 µM [inhibitor, partial curve, poor fit] | –
COc1cccc([C@@H]2Oc3ccc(OC)cc3C(=O)[C@H]2OC(=O)NCCc2ccc(OC)c(OC)c2)c1 | inconclusive: 31.6 µM [inhibitor, single point] | –
CC(C)Nc1nc(Oc2cccc(Cl)c2Cl)cc(C(F)(F)F)n1 | inconclusive: 35.5 µM [inhibitor, single point] | –

Looked up by structure from the entries so far:
Compound | Potency | activity change, negative = inhibition
C=CCn1c(SCc2nc3cc(C(=O)OC)ccc3c(=O)[nH]2)nc2sc(CC)cc2c1=O | – | inactive: 20.2%
COC(=O)c1ccc2c(c1O)C(=O)c1ccccc1C2=O | inconclusive: 1.12 µM [inhibitor, full curve, poor fit] | –

(listing goes on)

Compound | Potency | activity change, negative = inhibition
Cn1ncc2c(NNC(=O)c3ccccc3Cl)ncnc21 | active: 1 µM | –
CCOc1ccc(NC(=NCc2ccc3c(c2)OCO3)SC2CC(=O)N(c3ccccc3)C2=O)cc1 (centres undefined) | inconclusive: 7.94 µM [inhibitor, partial curve, poor fit] | –
CCCCSC(=S)N(C)C1CCS(=O)(=O)C1 (centres undefined) | inconclusive: 14.1 µM [activator, single point] | –
COc1ccc(/C=C(/NC(=O)c2ccccc2)C(=O)N/N=C/c2sccc2C)cc1 | active: 12.6 µM | –
CC(Oc1cccc(Cl)c1)C(=O)Nc1ccncc1 (centres undefined) | inconclusive: 35.5 µM [inhibitor, single point] | –
C=CCNC(=O)c1ccc2c3n(nc2c1)-c1ccc(C)cc1CO3 | active: 7.08 µM | –
CC(=O)NC(=S)Nc1ccc2oc(-c3cc(F)c(F)cc3Cl)nc2c1 | inconclusive: 14.1 µM [inhibitor, single point] | –
CCOC(=O)N1CCN(C(=O)CSc2nnc(CNC(=O)c3ccccc3F)o2)CC1 | – | inactive: -28.1%
CCSc1nnc(NC(=O)CSc2nnc(-c3c[nH]c4ccccc34)n2C)s1 | inconclusive: 22.4 µM [activator, single point] | –
CCOc1ccccc1NC(=O)CCS(=O)(=O)c1ccc2c(c1)CC(C)N2C(C)=O (centres undefined) | – | inactive: -4.14%
COC(=O)C1Cc2c([nH]c3ccccc23)C2(CCN(Cc3ccccc3)CC2)N1 (centres undefined) | – | inactive: -4.76%
COc1ccc(CNC(=O)CN(Cc2ccco2)C(=O)CNS(=O)(=O)c2ccc(F)cc2)cc1 | inconclusive: 35.5 µM [activator, single point] | –
CC(C)CC(NC(=O)c1ccc(Cl)cc1)C(=O)OCc1cc([N+](=O)[O-])cc2c1OCOC2 (centres undefined) | – | inactive: 1.61%
O=C(O)c1ccc(N/N=C/c2ccc(OC(=O)c3cccc(Cl)c3)cc2)cc1 | inconclusive: 0.0501 µM [inhibitor, full curve] | –
COc1ccc(-c2cc(C(=O)Nc3ccc4c(c3)OCO4)no2)cc1OC | – | inactive: -28.5%
Cc1ccc(NS(=O)(=O)c2ccc(NC(=O)c3ccc(Br)o3)cc2)c(C)c1 | inconclusive: 11.2 µM [activator, partial curve] | –
Cc1sc2nc(CN3CCCCC3)nc(Cl)c2c1C | – | inactive: -38.2%
CCCN1C(=O)c2ccccc2NC1c1ccc(Br)cc1 (centres undefined) | – | inactive: 16.6%
O=C(NCc1ccco1)C1CC(c2ccccc2C(F)(F)F)=NO1 (centres undefined) | – | inactive: 0.733%
COC(=O)[C@@]1(Cc2ccc(OC)cc2)[C@H]2c3cc(C(=O)N4CCCC4)n(CCc4ccccn4)c3C[C@H]2CN1C(=O)c1ccccc1 | inconclusive: 14.1 µM [activator, single point] | –
CN1C(=O)[C@H](Cc2ccc([N+](=O)[O-])cc2)NC1=S | inconclusive: 5.62 µM [inhibitor, single point] | –
CCn1c(CSc2nc(C)cc(C)n2)nnc1SCC(=O)Nc1cccc2ccccc12 | – | inactive: -34.9%
S=C(NCc1cccc(Cl)c1)NC1CCCCC1 | active: 2.82 µM | –
O=C(Nc1nc(-c2cc3ccccc3o2)cs1)c1ccc(S(=O)(=O)N2CCCC2)cc1 | inconclusive: 3.16 µM [activator, partial curve] | –
O=C(NNc1nc(-c2ccccc2)cs1)c1ccc(F)cc1 | active: 2 µM | –

Compound | Potency | activity change, negative = inhibition
CC(C(=O)Nc1ccc2c(c1)OCO2)c1ccc([N+](=O)[O-])cc1 (centres undefined) | inconclusive: 0.794 µM [inhibitor, full curve] | –
COC(=O)C1=C(C)NC(C)=C(C(=O)OC)C1c1ccc(-c2cc(Cl)ccc2Cl)o1 | – | inactive: -8.93%
OCCCNc1nc(-c2ccc(Cl)cc2)nc2ccccc12 | – | inactive: 20.9%
O=C(NCCCCCCNC(=O)c1ccc(Br)s1)c1ccc(Br)s1 | inconclusive: 5.62 µM [activator, single point] | –
CC(=O)NCCNc1ncnc2ccc(-c3c(C)noc3C)cc12 | active: 11.2 µM | –
CCNC(=S)N1CCN(Cc2ccc3c(c2)OCO3)CC1 | – | inactive: 5.74%
O=C(Nc1cnn(Cc2ccc(Cl)c(Cl)c2)c1)c1nc2ncccn2n1 | inconclusive: 14.1 µM [activator, single point] | –
CCOc1ccc(NC(=S)N(CCc2c(C)[nH]c3ccccc23)Cc2cccnc2)cc1 | inconclusive: 11.2 µM [activator, partial curve] | –
Cc1cccc(C(=O)N2CCCC(N3CCN(Cc4ccc5c(c4)OCO5)CC3)C2)n1 (centres undefined) | – | inactive: -11%
CC(Sc1nc2ccc(Br)cc2[nH]1)C(=O)O (centres undefined) | – | inactive: -9.35%
O=C(CSc1nnc(-c2ccncc2)n1Cc1ccco1)Nc1ccccc1Cl | inconclusive: 12.6 µM [activator, partial curve] | –
COc1ccc(-c2noc(C3CCCN(C(=O)c4ccccc4C)C3)n2)cc1 (centres undefined) | inconclusive: 11.2 µM [activator, partial curve] | –
COCCCNC(=O)CCc1nc(-c2ccccc2)no1 | inconclusive: 12.6 µM [activator, single point] | –
COCCn1c(COc2ccc(OC)cc2)nc2ccccc21 | – | inactive: -29.2%
Cc1nc(SCC(=O)Nc2ccccn2)n[nH]1 | – | inactive: 33.5%
CCOc1ccc(NC(=O)N(c2ccccc2)c2ccccc2)cc1 | – | inactive: 5.08%
CC(C)Cn1c(-c2csc3ccccc23)n[nH]c1=S | active: 1.12 µM | –
CCC(=O)Oc1ccc(C/C(=N\O)c2ccc(O)cc2O)o1 | active: 2.24 µM | –
O=C(c1cc2cc(F)ccc2[nH]1)N1CCCC(Nc2ccc(F)cc2)C1 (centres undefined) | inconclusive: 0.447 µM [activator, partial curve, poor fit] | –
COc1ccc(/C=C2\SC(=S)N(CCC(=O)NC3C=CS(=O)(=O)C3)C2=O)cc1 (centres undefined) | inconclusive: 10 µM [inhibitor, partial curve] | –
O=C(Nc1ccc(NC(=O)N2CCN(c3ccccc3O)CC2)cc1)N1CCN(c2ccccc2O)CC1 | – | inactive: 9.26%
COc1ccc(OC)c(C2(O)CSC(=Nc3cccnc3)N2Cc2ccco2)c1 (centres undefined) | inconclusive: 11.2 µM [inhibitor, single point] | –
O=C(COc1cccnc1[N+](=O)[O-])c1c[nH]c2ccccc12 | inconclusive: 6.31 µM [activator, single point] | –
COc1ccc(OC)c(/C=N/NC(=O)c2cc3c(OC)cc(OC)cc3[nH]2)c1 | – | inactive: 13.2%
